Results deposited as PubChem BioAssay AID1259308 (NCATS, 2017).
Test: 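Candidate targets for better recombinant protein yield in mammalian cells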 (primary screen). Cells: human HEK293 embryonic kidney cells stably expressing firefly luciferase (HEK-CMV-Luc2-Hygro). Reagent: single siRNA against human genes, 0.8 pmol siRNA per well. Time to read-out: 72 h. Measured: 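Luciferase light (ONE-Glo) measured on one replicate plate set and viability (CellTiter-Glo) on the other, scaled to a negative control siRNA, with robust z-scores and luciferase per cell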. Reading the numbers: total luciferase, z-score and total luciferase, % of control: higher = more reporter protein produced. Active means: 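An siRNA counts as active if its total luciferase robust z-score exceeds 3; genes with two or more such siRNAs out of three were retested with fresh siRNAs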. Meaning of the calls: active = raised luciferase; inactive = no rise.
In all, the deposit lists about 59,000 reagents; below is a part drawn at random. Over the whole deposit, about 1,510 (2.6%) were called active. 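Calls use total luciferase alone and ignore viability, so some active siRNAs may act by altering cell number.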 The numbers tell different reagents against one gene apart. Further read-outs or replicates are left out here.

What is on record for MICALL2 #1?
total luciferase, z-score: 0.0533; total luciferase, % of control: 82.9; outcome: inactive

For MICALL2 #2, what was measured?
total luciferase, z-score: -0.0388; total luciferase, % of control: 81.1; outcome: inactive

With MICALL2 #3, what does the deposit list?
total luciferase, z-score: 0.991; total luciferase, % of control: 102; outcome: inactive

With MAGEC3 #1, how do the results read?
total luciferase, z-score: -0.821; total luciferase, % of control: 65.5; outcome: inactive

What did the screen give for MAGEC3 #2?
total luciferase, z-score: -0.36; total luciferase, % of control: 74.7; outcome: inactive

What did the screen give for MAGEC3 #3?
total luciferase, z-score: -0.0214; total luciferase, % of control: 81.5; outcome: inactive

With TOMM7 #1, how do the results read?
total luciferase, z-score: -2.46; total luciferase, % of control: 33; outcome: inactive

For TOMM7 #2, what does the deposit list?
total luciferase, z-score: -1.18; total luciferase, % of control: 58.4; outcome: inactive

For TOMM7 #3, how do the results read?
total luciferase, z-score: 0.944; total luciferase, % of control: 101; outcome: inactive

What is on record for GABARAP #1?
total luciferase, z-score: -0.361; total luciferase, % of control: 74.7; outcome: inactive

What did the screen give for GABARAP #2?
total luciferase, z-score: -0.0574; total luciferase, % of control: 80.7; outcome: inactive

For GABARAP #3, how do the results read?
total luciferase, z-score: -0.273; total luciferase, % of control: 76.4; outcome: inactive

What did the screen give for LDB2 #1?
total luciferase, z-score: 0.152; total luciferase, % of control: 84.9; outcome: inactive

How did the screen score LDB2 #2?
total luciferase, z-score: -0.801; total luciferase, % of control: 65.9; outcome: inactive

Which result is listed for LDB2 #3?
total luciferase, z-score: 0.363; total luciferase, % of control: 89.1; outcome: inactive

For CA5B #1, what was measured?
total luciferase, z-score: -1.24; total luciferase, % of control: 57.2; outcome: inactive

For CA5B #2, what was measured?
total luciferase, z-score: -1.58; total luciferase, % of control: 50.5; outcome: inactive

With CA5B #3, what was measured?
total luciferase, z-score: -0.278; total luciferase, % of control: 76.4; outcome: inactive

Which result is listed for FBXL16 #1?
total luciferase, z-score: 0.128; total luciferase, % of control: 84.4; outcome: inactive

For FBXL16 #2, what does the deposit list?
total luciferase, z-score: 1.99; total luciferase, % of control: 121; outcome: inactive

For FBXL16 #3, what does the deposit list?
total luciferase, z-score: 0.729; total luciferase, % of control: 96.4; outcome: inactive

With TFPI2 #1, how do the results read?
total luciferase, z-score: -0.764; total luciferase, % of control: 66.7; outcome: inactive

What did the screen give for TFPI2 #2?
total luciferase, z-score: -0.1; total luciferase, % of control: 79.9; outcome: inactive

What did the screen give for TFPI2 #3?
total luciferase, z-score: 1.31; total luciferase, % of control: 108; outcome: inactive

For LOC400940 #1, what does the deposit list?
total luciferase, z-score: -0.00789; total luciferase, % of control: 81.7; outcome: inactive

With LOC400940 #2, what was measured?
total luciferase, z-score: 3.56; total luciferase, % of control: 153; outcome: active

What did the screen give for LOC400940 #3?
total luciferase, z-score: -0.371; total luciferase, % of control: 74.5; outcome: inactive

For ERMP1 #1, what does the deposit list?
total luciferase, z-score: 1.13; total luciferase, % of control: 104; outcome: inactive

For ERMP1 #2, what does the deposit list?
total luciferase, z-score: 1.44; total luciferase, % of control: 111; outcome: inactive

For ERMP1 #3, what does the deposit list?
total luciferase, z-score: 1.17; total luciferase, % of control: 105; outcome: inactive

For UPF3A #1, how do the results read?
total luciferase, z-score: -0.695; total luciferase, % of control: 68.1; outcome: inactive

With UPF3A #2, how do the results read?
total luciferase, z-score: 1.12; total luciferase, % of control: 104; outcome: inactive

For UPF3A #3, what does the deposit list?
total luciferase, z-score: 1.62; total luciferase, % of control: 114; outcome: inactive

Taken from above:
Result of GABARAP #3 under “total luciferase, % of control”: 76.4
Result for UPF3A #3 in “total luciferase, z-score”: 1.62
